B1: SU(Z)2 (protein, UniProt P25172 1-1368)
chain: MHLQNTHNTMESNAAMDAASPASRDVRQFHDLITCRLCRGYMIDPTTVDYCYHTYCRSCILKHLLRAVYCPECKASGGKEINELNLKSDDTLRSLIYKLVPGLYQRECKELADFKEQHDLVDEQTTDEPEFFTTTELISLSLEYHPAMLHQCGPGEVPPTIYLQCAAGLPVELLKRFLCSKYNIETDNGLVEVEVTYKDEVLPTNFTLMDVAYCYNWSRESPMAFCYRILLYDNEQTKNDENNLSRINQDIEPEHSVRRSKSAKSVTFAEDLESEIDSGSPRSKVRCKTPPKVSPSSKNKRLTSSKREAEPESPVSNFKSLRSNDMRYSDYAVSKVKSEPEQEQFLLPREREQQPLEANTNIVVSIPPSQLRKSYVDAEDFELKTANRKGVGHLPKLKIELNSMKSKLSMPLSAGPRLEDTSCSLSCSAQQLDLETYAKNIGLKPIEQPLQQSASNPDSKYSPNASPMSSCSSSTNGSSSSLGTADASTSTSTSSSHRKRKKKHSKEPKDANGKRKKLHAEISSQTDGKMKVKITAKPNHKLDFKRSHSLASGELDLQKLKLDSTSTSEALNRTLGEEARSINSLVVGGAPTPPPTPTAEPEQQQQQQQQQQQPQQQQQQQQQQQQQQQFVVLPKIKDLTLPTSPPLPPSLFKAYTPSTTPTAPHTVAGGKPKQQQQQMPQQPQAVLQQSLAKTNPAKPPLSSNNNRKPNSGHFAVPQAPTHRNMYHMQRYQSTPSSIASAANKMPKRSMSLDESHPAKQARLSQAQAMASSYAAKLHMQTSNQAKSQAAAFLPNPQMRSYGLPDLGSKPTLPMLCPASSSSQVTITPRPRATPSIYSFSEPNIHVPALEIVRLPVNKQSAGGKGLTMPPLSPPATSSARLMGPPAALPKHAGHGHGAAKRSCQMPTMPMPLPLPLPMPMTTIPAIVKSPPLSVALSGQRNNKGNSSNSNAYRTSPPALINLRNTAAPQHSFPSKSSPKVEANSKKSPPAAGCQGKTNGTAALDKSKTSLREFRPAVQSAVTATATTSVTTAAGAGAGAGTGTGTALAKDADILDLSANPGRSNNDAKLAPNSPPAGNNNNNNNNNNNNNNNNNNNNNNSTSNSLEAALNKIKQNISANSNGGPSTTSGSNSNGTTNGDDLQNLHMLSESATAREKISIKAASSGNGSGSTSSSSAKPKNANALVRPQNASVRSIPNPSALAFRNQPAAASTAASISKPLTVRAEEKPKVSTSNPGSLSPTNTSSSSSSSSSGSSGCSAATSPRAMTKKPTTIDQVAANLNIRAEAKAAALAEEAPPVLSSNAAKSPELAKTTTAVALRPEPKETPITVSAASTLLTIPSAVSSVSAVPETMAKPPVQIANAPVASSA
B2: dBRE1 (protein, UniProt Q9VRP9 1-1044)
chain: MSKRSADDATGSSCLVAAAAAGQPPIKKVHFEPHLIGPVSTLEEMDIKVLEFQNKKLAQRIEQRMRTEAELRHRIEQLEKRQTQDDAVLNVVNRYWNQLNEDIRVLLQRFDAETADELENRNENEVTTSFLAQLSTWDKEELDEKLANRVQVSKRAVAKIVQVIDRLMQRNEKITHVLKGDSLASAGSGSGAGAGGEEEQQQASGDAETTTSSAGVHALEETLKQTHIEIMSENHKLQNLNTSLHEKFHTMSLKMKEYQDAHTAKETENAELKNQIDELQYDLEKIHCRNDKLENHLAEAIEKLKAYHQIYGDPNKSTNSAKTPTTTGSGGATTSVNSQLLEELQKELEEYRELANNRLQELDKLHATHRETLKEVEKLKMDIRQLPESVIVETTEYKCLQSQFSVLYNESMQIKTMLDETRNQLQTSKNQHLRQIEVMESEELIAQKKVRSEMIQMEDVLALIRKEYETLRIEFEQNMAANEQTAPINREMRHLITSLQNHNGQLKGEVQRYKRKYKDTSTDNLKLRQELADALATLEGNKLQAATGAAGEEIKQENSTGVKEENSNNVSASGQTNQTNSGNDTNVAIKEENHISAEDEADDEASGKDVKDGIKQEKLSSGDAAAAEKKDSPGPGNSTSSATNSVPVKNEKDSKDGVKGKDVKAVESETVRDLKAQLKKALNDQKEMKLLLDMYKGVSKDQRDKVQLMATEKKLRSEIEELRQQLKKLQESKREERKKLADEEALRKIKQLEEQKYELQKQMANHKPTDNSWGSGAPGTANYTRPFVGSHEEEALLNEMEVTGQAFEDMQEQNSRLIQQLREKDDANFKLMSERIKANQLHKLLREEKTVLEDQMATATTQIEAMHIVLRKLEEKERSLQATVASIEKELMLRQQAMEMHKRKAIESAQSAADLKLHLEKYHAQMKEAQQVVAEKTSSLEAEAYKTKRLQEELAQFKRKAERMKKMEMSGTTIDEVMIEEIREYKETLTCPSCKVKRKDAVLSKCFHVFCYDCLRTRYETRQRKCPKCNCAFGANDYHRLYLQ
B3: SCE (protein, UniProt Q9VB08 1-435)
chain: MTSLDPAPNKTWELSLYELQRKPQEVITDSTEIAVSPRSLHSELMCPICLDMLKKTMTTKECLHRFCSDCIVTALRSGNKECPTCRKKLVSKRSLRADPNFDLLISKIYPSREEYEAIQEKVMAKFNQTQSQQALVNSINEGIKLQSQNRPQRFRTKGGGGGGGGGGNGNGAANVAAPPAPGAPTAVGRNASNQMHVHDTASNDSNSNTNSIDRENRDPGHSGTSAASAITSASNAAPSSSANSGASTSATRMQVDDASNPPSVRSTPSPVPSNSSSSKPKRAMSVLTSERSEESESDSQMDCRTEGDSNIDTEGEGNGELGINDEIELVFKPHPTEMSADNQLIRALKENCVRYIKTTANATVDHLSKYLAMRLTLDLGADLPEACRVLNFCIYVAPQPQQLVILNGNQTLHQVNDKFWKVNKPMEMYYSWKKT
B4: RAD6 (protein, UniProt P25153 1-151)
chain: MSTPARRRLMRDFKRLQEDPPTGVSGAPTDNNIMIWNAVIFGPHDTPFEDGTFKLTIEFTEEYPNKPPTVRFVSKVFHPNVYADGGICLDILQNRWSPTYDVSAILTSIQSLLSDPNPNSPANSTAAQLYKENRREYEKRVKACVEQSFID
B5: Polycomb (protein, UniProt P26017 1-390)
chain: MTGRGKGSKGKLGRDNATDDPVDLVYAAEKIIQKRVKKGVVEYRVKWKGWNQRYNTWEPEVNILDRRLIDIYEQTNKSSGTPSKRGIKKKEKEPDPEPESEEDEYTFTENDVDTHQATTSSATHDKESKKEKKHHHHHHHHHHIKSERNSGRRSESPLTHHHHHHHHESKRQRIDHSSSSNSSFTHNSFVPEPDSNSSSSEDQPLIGTKRKAEVLKESGKIGVTIKTSPDGPTIKPQPTQQVTPSQQQPFQDQQQAEKIASEAATQLKSEQQATPLATEAINTTPAESGAEEEEVANEEGNQQAPQVPSENNNIPKPCNNLAINQKQPLTPLSPRALPPRFWLPAKCNISNRVVITDVTVNLETVTIRECKTERGFFRERDMKGDSSPVA

No constants are given. Whether binding was seen depends on the method and setting. Binding seen in cells or lysates may run through a third protein. A yes stands for co-enrichment or nearness to the bait. Other partners may have been found. A no says only that the protein was not detected with the bait.

In the assay the target is dRYBP (Drosophila (endogenous in embryos)). As to the kind of experiment: affinity purification with mass spectrometry; two affinity purified anti-dRYBP antibodies (#194, #195) on sepharose A beads; nuclear extracts of 0-12 h Drosophila embryos; washes with 400 mM or 800 mM KCl and 0.1% NP-40; gel bands identified by nanoflow LC-MS/MS.
Turning to B1, the binding entry is given as “no binding”.

For the molecule B2, the binding entry is reported as “binds”.

B3: the binding entry is “binds”.

For B4, the binding entry is recorded as “no binding”.

B5: the binding entry was “no binding”.

For the origin of these results see paper PMC4240632.
